The assay in a line: qHTS Assay for Lipid Storage Modulators in Drosophila S3 Cells.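 As to cell number change: cells counted by Cell Tracker Red CMTPX staining in the red channel.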 The settings on record: BODIPY lipid droplet fluorescence, 18-24 h; for cell number change: measured here: cell count max response, cells fed with added oleic acid. An outline of the steps: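 Laser-scanning cytometry quantifies lipid droplet accumulation (500–530 nm total intensity; droplet/cell object ratio) in oleic acid-fed (400 uM added) Drosophila S3 cells treated with a concentration series. 20 uM Triacsin C defined 100% inhibition.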

Setting [1] is: measured here: lipid fluorescence (Fed channel) AC50, cells fed with added oleic acid.
Where [2] appears, read: measured here: cell number channel AC50, cells fed with added oleic acid.

The other results are listed elsewhere or left out. Shown are side measurements of this screen, not its main read-out; they come without a call. Most of these compounds were active or inconclusive in the main read-out, so they are no random draw. Potencies come from curve fits of mixed quality, noted in brackets.

As for `CCn1c(CNC(=O)C2CCCCC2)cc2cc(C)ccc21`, the AC50 – broadly, the concentration at which the activity in the assay is half-maximal – under setting [1] is 20.6 µM [rising, partial curve].

In the case of `Cc1cc(OC(=O)c2ccc(C(F)(F)F)cc2)c([N+](=O)[O-])c(=O)[nH]1`, the cell number change is 6.89%.

For the compound `N#CCc1ccc(NC(=O)/C=C/c2ccc([N+](=O)[O-])o2)cc1`, the cell number change was -113%. Moreover, the AC50 under setting [2] is 29.1 µM [falling, single point].

For the compound `O=C(Nc1cc2c(cc1Br)OCCCO2)c1cccnc1`, the cell number change was -0.647%. Moreover, the AC50 under setting [1] was 1.46 µM [rising, partial curve, poor fit].

Consider `COc1ccccc1C(=O)NCC(=O)NCCCN1CCOCC1`, for which the cell number change came out at 16.6%. The AC50 under setting [1] was 10.3 µM [rising, single point].

For the compound `OC(CNC1CCCC1)COc1ccccc1Br` (stereo unspecified), the cell number change is -36.6%. For the same compound, under setting [2], the AC50 was 25.9 µM [falling, single point].

On to `Cc1nc(SCC(=O)NC(C)(C#N)C2CC2)c2c(-c3cccs3)csc2n1` (stereo unspecified), for which the cell number change is -18%. For the same compound, the AC50 under setting [1] was 29.1 µM [falling, single point].

Take `Cc1cc(NS(=O)(=O)c2ccc(NC(=O)CN3C(=O)NC(C)(c4ccccc4)C3=O)cc2)nc(C)n1` (stereo unspecified): the cell number change was -95.9%. Further, the AC50 under setting [2] was 9.2 µM [falling, single point]. For the same compound, the AC50 under setting [1] was 5.8 µM [falling, single point].

With `CN(C(=O)COC(=O)CSc1ccc([N+](=O)[O-])cc1)c1ccccc1`, the cell number change came to 4.55%.

As for `O=C(Cn1c(=O)c2c(ncn2Cc2ccccc2)n(Cc2ccccc2)c1=O)NC1CC1`, the cell number change was 1.11%. Also, the AC50 under setting [2] was 0.103 µM [falling, full curve, poor fit]. In addition, the AC50 under setting [1] is 0.517 µM [falling, single point].

Regarding `CC1CCN(C(=O)Cn2nnc(-c3ccccc3)n2)CC1`, the cell number change worked out at 10.8%. Besides, the concentration at half-maximal activity (AC50) under setting [1] is 0.13 µM [rising, full curve, poor fit].

For the compound `CCN(Cc1ccccc1)S(=O)(=O)c1ccc(C(=O)N(CCCN(C)C)c2nc3cc4c(cc3s2)OCCO4)cc1`, the cell number change is 34.9%. Besides, the AC50 under setting [1] is 0.651 µM [falling, single point].

Regarding `Cc1ccc(-c2cc(C(=O)Nc3ccc(S(=O)(=O)Nc4ncccn4)cc3)[nH]n2)c(O)c1C`, the cell number change is 31.7%. For the same compound, the AC50 under setting [2] was 18.4 µM [rising, single point].

Take `CCN1CCN(C(=O)c2cc3c(=O)n(C)c4ccccc4c3n2C)CC1`: the cell number change was found to be 37.7%. For the same compound, under setting [2], the AC50 is 29.1 µM [rising, single point].

`Clc1ccc(Cn2ncc3c(N4CCCCC4)ncnc32)cc1`: the cell number change is -24.4%. Also, the AC50 under setting [1] was 6.51 µM [rising, single point].

`CC(=O)c1ccc(S(=O)(=O)Nc2cccc(-c3ccc(N4CCOCC4)nn3)c2)cc1`: the cell number change was -19.2%.

`CCOc1ccc(C(=O)NCc2ccc3c(c2)OCO3)cc1OCC`: the cell number change came to 13.5%.

Take `CC(=O)Nc1sc(/C(C#N)=C\c2cccc(Cl)c2)nc1-c1ccc(C)cc1`: the cell number change came to 0.569%. Further, the AC50 under setting [1] is 6.51 µM [falling, partial curve].

As to `C/C(=N\NC(=O)c1cccc([N+](=O)[O-])c1)c1cccs1`, the cell number change was found to be 26.8%. For the same compound, the AC50 under setting [2] is 1.84 µM [rising, full curve, poor fit].

Regarding `COc1ccc(NS(=O)(=O)c2ccc3oc4ccccc4c3c2)cn1`, the cell number change was -44.2%. In addition, the AC50 under setting [2] was 29.1 µM [falling, single point].

As to `Cc1ccc(Nc2nc(N)nc(CN3CCN(c4ccccc4F)CC3)n2)cc1`, the cell number change was -27.9%. Also, the AC50 under setting [1] was 14.6 µM [falling, partial curve, poor fit].

Consider `OCCCNc1c2c(nc3cc(-c4ccc(Cl)cc4)nn13)CCC2`, for which the cell number change was 6.32%. Besides, under setting [1], the AC50 is 0.0259 µM [rising, full curve, poor fit].

As for `O=C(NCc1ccccc1F)c1cccc(S(=O)(=O)NCc2ccccc2)c1`, the cell number change is -16.5%. The AC50 under setting [1] is 8.2 µM [falling, partial curve, poor fit].

Consider `Cc1ccc(NC(=O)COc2ccc3c(c2)OCO3)c(C)c1`, for which the cell number change was -23.1%. Further, the AC50 under setting [1] is 16.4 µM [rising, partial curve, poor fit].

For `COc1ccccc1N(Cc1ccccc1)S(=O)(=O)c1cccc(C(=O)Nc2ncccc2C)c1`, the cell number change was 104%.

Consider `O=C(COC(=O)c1ccc(S(=O)(=O)NCc2ccco2)cc1)NC1CCCCCC1`, for which the cell number change is -67.3%. Also, the AC50 under setting [2] is 16.4 µM [falling, partial curve, poor fit].

Consider `O=C(CN1CCN(C(=O)c2ccccc2)CC1)Nc1ncc(Br)cc1Br`, for which the AC50 is, setting by setting: under setting [2], 2.31 µM [rising, partial curve]; under setting [1], 2.31 µM [rising, partial curve].

With `Cc1ccc(-c2cc(C(=O)NCc3cnn(C)c3C)c3cc(Br)ccc3n2)cc1`, the cell number change is -27.6%. Besides, under setting [1], the concentration at half-maximal activity (AC50) is 32.6 µM [falling, single point].

For `Cc1ccc(NC(=O)c2cc(C(C)(C)C)nn2Cc2ccccc2)cc1`, the cell number change is -46.1%. Also, the AC50 under setting [2] was 18.4 µM [falling, single point]. In addition, the concentration at half-maximal activity (AC50) under setting [1] was 20.6 µM [falling, partial curve].

`CC1(C)O[C@@H]2[C@H](O1)[C@@H](COS(=O)(=O)O)O[C@H]2n1cnc2c(N)ncnc21`: the cell number change was found to be 4.36%.

Consider `NC(=O)CSc1nnc(COc2ccc3ccccc3c2)o1`, for which the cell number change was -12.4%. Besides, the AC50 under setting [1] was 0.731 µM [falling, full curve].

In the case of `CCN(CC(=O)NCc1cccs1)CC(=O)Nc1c(Cl)ccc(C)c1Cl`, the cell number change came to 3.19%. Besides, under setting [2], the AC50 is 6.51 µM [falling, single point]. In addition, the concentration at half-maximal activity (AC50) under setting [1] was 7.31 µM [falling, partial curve, poor fit].

`NC(=S)N/N=C/c1ccc(C23CC4CC(CC(C4)C2)C3)cc1`: the cell number change was -41.4%. Besides, the AC50 under setting [2] was 10.3 µM [falling, partial curve].

In the case of `O=C(COC(=O)c1cccc(Cl)c1)Nc1ccc2[nH]c(=O)[nH]c2c1`, the cell number change was -17.6%. Under setting [1], the concentration at half-maximal activity (AC50) was 4.61 µM [falling, full curve].

As for `CCCCCCCCCCCCCCCC[N+](C)(C)CCN(Cc1ccc(OC)cc1)c1ncccn1`, under setting [2], the concentration at half-maximal activity (AC50) was 6.51 µM [falling, single point].

In the case of `CCCCOc1ccc(C(=O)Oc2cccnc2)cc1`, the cell number change was -7.67%. Further, the AC50 under setting [1] is 1.46 µM [falling, partial curve].

Consider `O=C(CCc1c[nH]c2ccccc12)NCC(=O)Nc1ccc(F)c(F)c1F`, for which the cell number change is -1.08%. Also, the AC50 under setting [2] is 6.51 µM [rising, single point].

Turning to `CC1CCCN(C(=O)CSc2nnc(-c3ccc(S(=O)(=O)N4CCOCC4)cc3)n2C)C1` (stereo unspecified), the cell number change is -11.2%.

With `N#Cc1c(NC(=O)CSc2n[nH]c(N)n2)oc(-c2ccccc2)c1-c1ccccc1`, the AC50 under setting [1] was 0.13 µM [rising, full curve, poor fit].

In the case of `CCn1c(/C=C/c2cc(Br)ccc2O)nc2ccccc2c1=O`, the cell number change was -35.7%. Also, the AC50 under setting [2] is 5.17 µM [falling, partial curve]. For the same compound, under setting [1], the AC50 is 29.1 µM [falling, single point].

For `CCOc1ccc(-c2cc(C(=O)NCCCN3CCOCC3)c3ccccc3n2)cc1`, the cell number change came to 6.93%. Moreover, under setting [1], the AC50 was 29.1 µM [rising, single point].

For the compound `Cn1c(N)c(C(=O)COC(=O)CCc2ccccc2)c(=O)n(C)c1=O`, the AC50 under setting [1] was 6.51 µM [falling, single point].

Regarding `O=C(COc1ccc(-n2cnnn2)cc1)Nc1cccc(Cl)c1Cl`, the cell number change was -10.3%.

Turning to `COc1ccc2nc(SCC(=O)NN)cc(C)c2c1`, the cell number change was 36.1%.

As to `Cn1cnnc1SCc1ccc(C(=O)N=Nc2c(O)n(Cc3ccc(Cl)cc3)c3ccccc23)cc1`, the cell number change is -47.3%. Moreover, the concentration at half-maximal activity (AC50) under setting [2] was 29.1 µM [falling, single point]. Also, the AC50 under setting [1] was 2.59 µM [rising, partial curve].

In the case of `COc1cc2[nH]c(=O)c(C(=O)NCc3ccccc3Cl)c(O)c2cc1OC`, the AC50 under setting [1] is 1.03 µM [falling, full curve, poor fit].

With `O=C(NC1CC1)C1CCN(c2ncnc3c2sc2cccc(F)c23)CC1`, the cell number change was found to be 110%. Further, under setting [2], the AC50 was 0.651 µM [rising, full curve]. Besides, under setting [1], the concentration at half-maximal activity (AC50) is 1.16 µM [rising, partial curve].

Consider `O=C1CCCN1CCC1CCN(C(=S)Nc2ccc(F)cc2)CC1`, for which the cell number change was -69.7%. Moreover, the AC50 under setting [2] is 23.1 µM [falling, single point]. Besides, under setting [1], the AC50 is 23.1 µM [falling, single point].

For the compound `Cc1cc(C)nc(Nc2n[nH]c(-c3ccccc3N)n2)n1`, the cell number change was -12.4%. Also, the AC50 under setting [2] is 0.00517 µM [falling, full curve, poor fit]. In addition, under setting [1], the concentration at half-maximal activity (AC50) was 0.291 µM [falling, full curve, poor fit].

Consider `CC(=O)c1ccc(NS(=O)(=O)c2ccc3ccccc3c2)cc1`, for which the cell number change is 10%. Moreover, the AC50 under setting [1] was 8.2 µM [falling, single point].

In the case of `CC(C)(C)c1nc(N2CCN(C(=O)c3ccco3)CC2)c2nnn(Cc3ccccc3)c2n1`, the cell number change amounted to 14%. Besides, the AC50 under setting [1] is 29.1 µM [falling, single point].

Take `CN(C)C(=O)c1cccn(Cc2ccc(C(F)(F)F)cc2)c1=O`: the cell number change was -7.37%. The AC50 under setting [1] was 3.66 µM [rising, single point].

For the compound `COC(=O)c1sc(NC(=O)C2CCCO2)c(C(=O)OC)c1C` (stereo unspecified), the cell number change is -14.3%. Also, the AC50 under setting [1] is 4.11 µM [falling, full curve, poor fit].

Regarding `CCOC(=O)C1CCN(C(=O)c2ccc(OC)cc2OC)CC1`, under setting [1], the AC50 was 16.4 µM [rising, partial curve].

For the compound `CC(=O)Nc1cc(C(=O)N2CCc3ccccc3C2)ccc1Sc1ccc(F)cc1`, the cell number change was determined as 19.5%. Besides, under setting [1], the AC50 was 7.31 µM [falling, single point].

As for `O=C(Cn1cnc2c(cnn2-c2ccccc2)c1=O)Nc1cc(S(=O)(=O)N2CCOCC2)ccc1Cl`, the AC50 under setting [1] was 20.6 µM [falling, partial curve].

As to `O=C(NCCCN1CCN(c2ccccc2F)CC1)Nc1ccc(F)cc1`, the cell number change was -3.76%.

Turning to `COc1ccc2c(CC(=O)NC(Cc3ccc(Cl)cc3)C(=O)O)cc(=O)oc2c1C` (stereo unspecified), the cell number change is 207%. The half-maximal activity concentration (AC50) under setting [2] is 29.1 µM [rising, single point].

`Cc1ccccc1NC(=O)c1ccc(CN2CCC(Cc3ccccc3)CC2)cc1`: under setting [1], the AC50 was 2.06 µM [rising, partial curve].

On to `CC(C)Cn1c(N)c(C(=O)COC(=O)C2CC(=O)N(Cc3ccccc3Cl)C2)c(=O)n(C)c1=O` (stereo unspecified), for which the cell number change is -51.3%. Moreover, the AC50 under setting [2] was 32.6 µM [falling, single point].

The values are drawn from PubChem BioAssay AID2685 (National Center for Advancing Translational Sciences (NCATS), 2010).
